The results are deposited in PubChem (AID504749; NCATS, 2011).

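A panel of P. falciparum strains inside erythrocytes is exposed to compounds for three days, then a DNA-binding dye reports the amount of parasite DNA. Each compound was titrated across a series from about 0.000037 to 29 µM. The number is the fitted AC50, the concentration giving a half-maximal change in signal; a lower value means higher potency, whether the curve shows a decrease or an increase. Calls follow the curve class and fit quality: every row here is inconclusive, covering signal-raising curves and weak, poorly fitted, partial or highest-dose-only inhibition curves.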

Values are in µM. Every entry below has the call inconclusive. These entries are mostly ones the record files as inconclusive; other results of the assay are not listed here. Potencies fitted to partial, single-point or poorly fitting curves are rough. The first word of each remark tells which way the curve ran; it can be opposite to the aim of the assay.

O=C1NCN(c2ccccc2)C12CCN(CC1COc3ccccc3O1)CC2 (centres undefined) [CP237] gave fitted potency 11.22 µM (inhibitor, single point). Result for O=C1NCN(c2ccccc2)C12CCN(CC1COc3ccccc3O1)CC2 (centres undefined) [PAD] was fitted potency 5.012 µM (inhibitor, partial curve). Result for O=C1NCN(c2ccccc2)C12CCN(CC1COc3ccccc3O1)CC2 (centres undefined) [CP260] was fitted potency 11.22 µM (inhibitor, single point). With O=C1NCN(c2ccccc2)C12CCN(CC1COc3ccccc3O1)CC2 (centres undefined) [DIV17] the assay gave fitted potency 15.1 µM (inhibitor, partial curve, poor fit). Nc1ccc(C(=O)O)c(O)c1 [CP203] read fitted potency 0.0048 µM (activator, full curve, poor fit).

For CNC(=O)c1c(I)c(C(=O)NCC(=O)Nc2c(I)c(C(=O)O)c(I)c(C(=O)NCCO)c2I)c(I)c(N(C)C(C)=O)c1I [TAB109] the result was fitted potency 2.239 µM (inhibitor, single point). CNC(=O)c1c(I)c(C(=O)NCC(=O)Nc2c(I)c(C(=O)O)c(I)c(C(=O)NCCO)c2I)c(I)c(N(C)C(C)=O)c1I [CP315] read fitted potency 19.01 µM (inhibitor, single point). For CN[C@H](C)CCC=C(C)C [CP329] the result was fitted potency 1.51 µM (inhibitor, full curve, poor fit). With O=C(Nc1ccc(Cl)cc1)Nc1ccc(Cl)c(Cl)c1 [Dd2] the assay gave fitted potency 11.22 µM (inhibitor, single point). COc1ccc(C(=O)N2CCN(CC(=O)N3CCOCC3)CC2)cc1 [CP250] gave fitted potency 3.981 µM (inhibitor, single point).

Cn1c(CCCC(=O)O)nc2cc(N(CCCl)CCCl)ccc21 [ICS] gave fitted potency 12.59 µM (inhibitor, single point). Cn1c(CCCC(=O)O)nc2cc(N(CCCl)CCCl)ccc21 [7G8] read fitted potency 11.22 µM (inhibitor, single point). Cc1cccc(C)c1NC(=O)CC12CCCN1CCC2 [W2] read fitted potency 15.1 µM (inhibitor, single point). O=C(O)CCC(=O)c1ccc(-c2ccccc2)cc1 [CP215] gave fitted potency 7.208 µM (inhibitor, single point). Result for NC(=O)NC(CCC(=O)O)C(=O)O (centres undefined) [PC26] was fitted potency 0.0005 µM (inhibitor).

NP(N)(=O)NC(=O)c1ccc(F)cc1 [CP185] gave fitted potency 3.548 µM (inhibitor, single point). For COc1ncnc(NS(=O)(=O)c2ccc(N)cc2)c1OC [3D7] the result was fitted potency 0.7943 µM (inhibitor, partial curve, poor fit). With Clc1cc(Cl)c(OCC#CI)cc1Cl [FAB9] the assay gave fitted potency 17.78 µM (inhibitor, single point). For NC(=O)C1c2ccccc2CCc2ccccc21 [N140] the result was fitted potency 3.548 µM (inhibitor, single point). For NC(=O)C1c2ccccc2CCc2ccccc21 [P93_24] the result was fitted potency 3.981 µM (inhibitor, single point).

For NC(=O)C1c2ccccc2CCc2ccccc21 [P94_40] the result was fitted potency 2.239 µM (inhibitor, single point). Cc1ccc(S(=O)(=O)NC(=O)NC2CCCCC2)cc1 [Dd2] gave fitted potency 12.59 µM (inhibitor, single point). CN1C(=O)CC(=O)N(c2ccccc2)c2cc(Cl)ccc21 [TAB113] read fitted potency 1.122 µM (inhibitor, partial curve). For ClC1C(Cl)C(Cl)C(Cl)C(Cl)C1Cl (centres undefined) [DIV14] the result was fitted potency 21.33 µM (inhibitor, single point). Result for CN(C)C(=O)Oc1cccc([N+](C)(C)C)c1 [CP215] was fitted potency 3.013 µM (activator, partial curve, poor fit).

With CN(C)C(=O)Oc1cccc([N+](C)(C)C)c1 [CP203] the assay gave fitted potency 0.0213 µM (activator, full curve, poor fit). With COc1ccc(C(=O)c2ccccc2)c(O)c1 [TAB165] the assay gave fitted potency 17.78 µM (inhibitor, single point). CNc1c2c(nn1C)CCCC2 [DIV14] gave fitted potency 12 µM (inhibitor, single point). For [N-]=[N+]=CC(=O)OCC(N)C(=O)O (centres undefined) [CP260] the result was fitted potency 17.78 µM (inhibitor, single point). For COc1ccc2[nH]c(S(=O)Cc3ncc(C)c(OC)c3C)nc2n1 (centres undefined) [CP238] the result was fitted potency 11.22 µM (inhibitor, single point).

With COc1ccc2[nH]c(S(=O)Cc3ncc(C)c(OC)c3C)nc2n1 (centres undefined) [FAB9] the assay gave fitted potency 10 µM (inhibitor, single point). For Nc1ncnc2c1ncn2[C@@H]1O[C@H](CO)[C@@H](O)[C@H]1O [CP297] the result was fitted potency 12 µM (inhibitor, partial curve).

The first 2 entries again:

SMILES,setting,fitted potency (µM),curve as filed
O=C1NCN(c2ccccc2)C12CCN(CC1COc3ccccc3O1)CC2 (centres undefined),CP237,11.22,"inhibitor, single point"
O=C1NCN(c2ccccc2)C12CCN(CC1COc3ccccc3O1)CC2 (centres undefined),PAD,5.012,"inhibitor, partial curve"